Laboratory results: paper PMC4074033
No constants are given. Whether binding was seen depends on the method and setting. Binding seen in cells or lysates may run through a third protein. Some entries that bind do so weakly or less than the wild type.

By UniProt entry, the sequences of proteins in these tests, tags left out. Where a name states a change or a piece, a line headed by the entry shows the natural chain unless it says otherwise. Residues count along the entry.
UniProt Q9QR71: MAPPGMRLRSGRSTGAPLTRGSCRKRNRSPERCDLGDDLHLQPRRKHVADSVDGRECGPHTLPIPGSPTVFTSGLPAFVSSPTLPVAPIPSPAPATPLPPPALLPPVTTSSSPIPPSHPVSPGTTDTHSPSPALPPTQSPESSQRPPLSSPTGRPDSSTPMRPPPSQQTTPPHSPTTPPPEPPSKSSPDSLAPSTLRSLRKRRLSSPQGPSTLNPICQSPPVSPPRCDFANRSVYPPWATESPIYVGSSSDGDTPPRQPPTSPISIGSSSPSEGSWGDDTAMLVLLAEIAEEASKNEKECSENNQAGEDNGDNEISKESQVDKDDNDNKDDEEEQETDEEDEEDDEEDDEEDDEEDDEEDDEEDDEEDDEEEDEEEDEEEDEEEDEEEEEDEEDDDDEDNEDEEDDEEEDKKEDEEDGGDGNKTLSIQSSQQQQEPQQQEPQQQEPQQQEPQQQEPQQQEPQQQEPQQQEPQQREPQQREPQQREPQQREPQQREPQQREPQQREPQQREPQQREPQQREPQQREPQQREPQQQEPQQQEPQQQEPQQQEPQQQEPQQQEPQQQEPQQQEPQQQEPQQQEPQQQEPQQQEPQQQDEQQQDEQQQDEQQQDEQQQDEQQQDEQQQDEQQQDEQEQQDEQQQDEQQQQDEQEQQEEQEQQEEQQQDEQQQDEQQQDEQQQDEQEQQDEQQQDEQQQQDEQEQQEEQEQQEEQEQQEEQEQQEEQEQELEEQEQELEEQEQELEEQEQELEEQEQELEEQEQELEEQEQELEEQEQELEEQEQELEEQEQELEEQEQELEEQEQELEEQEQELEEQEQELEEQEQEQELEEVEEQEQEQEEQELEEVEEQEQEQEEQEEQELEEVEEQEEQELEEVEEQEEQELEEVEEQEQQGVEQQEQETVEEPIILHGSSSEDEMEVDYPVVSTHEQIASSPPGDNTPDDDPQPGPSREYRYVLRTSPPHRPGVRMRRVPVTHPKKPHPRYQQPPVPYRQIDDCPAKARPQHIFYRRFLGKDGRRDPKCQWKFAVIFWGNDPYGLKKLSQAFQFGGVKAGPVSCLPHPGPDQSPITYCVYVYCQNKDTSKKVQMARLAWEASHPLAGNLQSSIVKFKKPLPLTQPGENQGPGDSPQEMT
UniProt O96017: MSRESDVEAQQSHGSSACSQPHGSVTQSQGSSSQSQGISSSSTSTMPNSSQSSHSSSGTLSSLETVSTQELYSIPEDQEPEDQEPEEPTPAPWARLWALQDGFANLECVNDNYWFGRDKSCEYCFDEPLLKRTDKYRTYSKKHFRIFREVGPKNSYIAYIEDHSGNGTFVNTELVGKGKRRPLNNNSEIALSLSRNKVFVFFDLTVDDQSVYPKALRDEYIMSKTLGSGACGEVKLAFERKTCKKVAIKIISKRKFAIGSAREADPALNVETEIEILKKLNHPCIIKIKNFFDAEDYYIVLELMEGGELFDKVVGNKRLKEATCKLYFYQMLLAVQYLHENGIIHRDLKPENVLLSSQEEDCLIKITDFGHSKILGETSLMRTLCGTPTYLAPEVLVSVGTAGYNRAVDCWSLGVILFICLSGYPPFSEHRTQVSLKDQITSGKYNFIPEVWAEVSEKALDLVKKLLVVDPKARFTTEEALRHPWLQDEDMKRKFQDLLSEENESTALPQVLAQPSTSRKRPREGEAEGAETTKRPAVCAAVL
GST-Chk2 truncation, amino acids 207 to 457 (carboxy-terminal region): residues 207-457 of O96017

Tests used:
[1] = target: Myc-tagged latency associated nuclear antigen (LANA) of KSHV, from pA3M-LANA (Kaposi's sarcoma-associated herpesvirus (KSHV, human herpesvirus-8)) (UniProt Q9QR71); test: co-IP; BJAB and HEK-293 cells co-transfected with pCDNA3.1-HAChk2 and pA3M-LANA; lysis in RIPA buffer (0.5% NP-40, 10 mM Tris pH 7.5, 2 mM EDTA, 150 mM NaCl); immunoprecipitation with anti-Myc, blot with anti-HA
[2] = target: GST-Chk2 truncation, amino acids 207 to 457 (carboxy-terminal region) (UniProt O96017); test: pull-down; GST-Chk2 truncations on glutathione-sepharose beads; nuclear extract of KSHV-positive BC3 cells, precleared with beads and GST-bound beads; overnight at 4°C; LANA detected by immunoblotting; only the target purified
[3] = target: GST-Chk2 truncation, amino acids 207 to 457 (carboxy-terminal region) (UniProt O96017); test: pull-down; GST-Chk2 truncations on glutathione-sepharose beads; [35S]-labelled in vitro translated LANA, precleared; binding buffer 1x PBS, 0.1% NP-40, 0.5 mM DTT, 10% glycerol; 24 hours at 4°C; SDS-PAGE; only the target purified

## HA-tagged Chk2, from pCDNA3.1-HAChk2 (from UniProt O96017 1-543)
[1]
  binding: binds

## LANA in nuclear extract of KSHV-positive BC3 cells (from UniProt Q9QR71 1-1129)
[2]
  binding: no binding

## in vitro translated [35S]-labelled LANA, from the full-length pA3M-LANA clone (from UniProt Q9QR71 1-1129)
[3]
  binding: no binding
